Reference: the supplement of paper PMC8326762, “A Small Molecule Inhibitor of Pex3–Pex19 Interaction Disrupts Glycosome Biogenesis and Causes Lethality in Trypanosoma brucei” (Frontiers in Cell and Developmental Biology, 2021)
Counter-ions that a name gives are not always drawn. Some of the results follow. The data scatter; read single values as rough.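 Yeast growth was measured as optical density at 600 nm. Two-hybrid strains grew without histidine, so growth depended on Pex3–Pex19 binding. A compound was trypanosome-selective if it reduced growth of the trypanosome-pair strain by over 65% and of the human-pair strain by under 65%.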

Experiments:
[1] = test system: Saccharomyces cerevisiae HF7c pdr5Δ; assay: general growth inhibition of yeast HF7c pdr5Δ in -Leu -Trp medium, relative to DMSO; higher = stronger general growth inhibition; conditions: 100 µM; 24 h
[2] = test system: human PEX3-PEX19 interaction (yeast two-hybrid); assay: growth inhibition of yeast two-hybrid strain reporting HsPex3-HsPex19 interaction, relative to DMSO; higher = stronger inhibition of human Pex3-Pex19 interaction / growth; conditions: 100 µM; 24 h; 3-aminotriazole 10 mM
[3] = test system: T. brucei Pex3-Pex19 interaction (yeast two-hybrid); assay: growth inhibition of yeast two-hybrid strain reporting TbPex3-TbPex19 interaction, relative to DMSO; higher = stronger inhibition of T. brucei Pex3-Pex19 interaction / growth; conditions: 100 µM; 24 h

SMILES	general growth inhibition [1]	growth inhibition [2]	growth inhibition [3]
CN(C)C(=O)Oc1ccc[n+](C)c1 [Pyridostigmine bromide]	46.7%	45.2%	60%
CNc1ccc2oc(C[C@H]3O[C@@]4(CC[C@H]3C)O[C@H]([C@H](C)C(=O)c3ccc[nH]3)[C@H](C)C[C@H]4C)nc2c1C(=O)O [Calcimycin]	66.6%	49.6%	47.5%
COc1cc2c(c(OC)c1OC)-c1ccc(OC)c(=O)cc1[C@@H](NC(C)=O)CC2 [Colchicine]	30.3%	40.6%	59.8%
NCC(CP(=O)(O)O)c1ccc(Cl)cc1 (stereo not given) [Phaclofen]	18.1%	15.2%	41.1%
CCN1C[C@]2(COC)[C@H](O)C[C@H](OC)[C@@]34[C@@H]5C[C@@]6(O)[C@H](OC(=O)c7ccccc7)[C@@H]5[C@@](OC(C)=O)([C@@H]([C@H](OC)[C@H]23)[C@@H]14)[C@@H](O)[C@@H]6OC [Aconitine]	48%	41.6%	63.6%
NC(N)=Nc1ccc2[nH]c3c(c2c1)C[C@@]1(O)[C@H]2Cc4ccc(O)c5c4[C@@]1(CCN2CC1CC1)[C@H]3O5 [Guanidinyl-naltrindole di-trifluoroacetate]	80.2%	81.7%	68.4%
CC(C)N(CCC(C(N)=O)(c1ccccc1)c1ccccn1)C(C)C (stereo not given) [Disopyramide]	16.7%	11%	33.9%
CN1C[C@H](CNC(=O)OCc2ccccc2)C[C@@H]2c3cccc4c3c(cn4C)C[C@H]21 [Metergoline]	9.3%	0.477%	24.9%
Clc1cnc(Oc2ccc(Oc3ncc(Cl)cc3Cl)cc2)c(Cl)c1	39.3%	28.8%	45%
CC(N)Cc1cccc(C(F)(F)F)c1 (single isomer, unassigned; (+)) [(+)-Norfenfluramine hydrochloride]	52.3%	49.1%	70%
NCC1(CC(=O)O)CCCCC1 [Gabapentin]	33.2%	36.9%	55%
CN(C)C(=O)Oc1cccc([N+](C)(C)C)c1 [Neostigmine bromide]	47.5%	49.5%	65.1%
c1ccc(C2(c3ccccc3)CC2C2=NCCN2)cc1 (stereo not given) [Cibenzoline succinate]	50.6%	46.5%	69.2%
NC(CP(=O)(O)O)C(=O)O (racemic) [(±)-2-Amino-3-phosphonopropionic acid]	40.5%	42.3%	59.8%
CCCN(CCC)[C@@H]1CCc2cccc(O)c2C1 [R-(+)-8-Hydroxy-DPAT hydrobromide]	1.91%	-4.69%	34.1%
Cc1ncsc1CCCl [Chlormethiazole hydrochloride]	34.6%	40%	51.6%
O=C(CCCN1CCC2(CC1)C(=O)NCN2c1ccccc1)c1ccc(F)cc1 [Spiperone hydrochloride]	54.3%	31.7%	60.3%
COc1ccc(C(CN(C)C)C2(O)CCCCC2)cc1 (stereo not given) [Venlafaxine hydrochloride]	35.1%	35.9%	64.9%
CCCN1CCC[C@H](c2cccc(O)c2)C1 [R(+)-3PPP hydrochloride]	51.9%	51%	70.3%
N.N.[Cl][Pt][Cl] [Cisplatin]	35%	31.9%	73.4%
CC1=NN=C(c2ccc(N)cc2)c2cc3c(cc2C1)OCO3	11%	-3.57%	24%
N[C@]1(C(=O)O)CC[C@H](C(=O)O)C1 (racemic) [trans-(±)-ACPD]	43.3%	41.5%	59.2%
CC(C)(C)NCC(O)c1ccccc1Cl (stereo not given) [Tulobuterol hydrochloride]	49.7%	47.8%	67%
COC[C@H]1OC(=O)c2coc3c2[C@@]1(C)C1=C(C3=O)[C@@H]2CCC(=O)[C@@]2(C)C[C@H]1OC(C)=O [Wortmannin from Penicillium funiculosum]	91.4%	88.6%	84.3%
Cc1cc2c(C(C)C)c(O)c(O)c(C=O)c2c(O)c1-c1c(C)cc2c(C(C)C)c(O)c(O)c(C=O)c2c1O [Gossypol]	36.2%	27.9%	47.7%

SMILES	general growth inhibition [1]	growth inhibition [2]	growth inhibition [3]
N=C(N)NN [Aminoguanidine hemisulfate]	51.9%	37.9%	58.5%
NC(=O)c1ccc(OCC(O)CN2CC=C(c3ccc(F)cc3)CC2)cc1 (stereo not given)	31.4%	10.6%	42%
Cc1[nH]c2ccc(O)cc2c1CCN [2-Methyl-5-hydroxytryptamine maleate]	48%	44%	61.6%
O=c1ccc2[nH]cc(C3=CCNCC3)c2[nH]1	25.7%	-6.2%	48.9%
CC(=O)O[C@H]1C[C@@H]2CC[C@@H]3[C@H](CC[C@@]4(C)[C@H]3C[C@H]([N+]3(C)CCCCC3)[C@@H]4OC(C)=O)[C@@]2(C)C[C@@H]1[N+]1(C)CCCCC1 [Pancuronium bromide]	42.5%	46.4%	63.2%
CC(N)C(O)c1ccc(O)c(O)c1 (single isomer, unassigned; (-)) [(-)-alpha-Methylnorepinephrine]	54.3%	51.6%	70.1%
OCc1cnc[nH]1 [4-Imidazolemethanol hydrochloride]	40.4%	48.1%	66.7%
C=C(C)[C@H]1CN[C@H](C(=O)O)[C@H]1CC(=O)O [Kainic acid]	46.6%	48.1%	61.1%
CN1CC[C@@]2(C)c3cc(O)ccc3N(C)C12 (single isomer, unassigned; (-)) [(-)-Eseroline fumarate]	10.8%	3.49%	25.7%
C[N+]1(C)[C@@H]2C[C@@H](OC(=O)[C@H](CO)c3ccccc3)C[C@H]1[C@@H]1O[C@@H]12 [(-)-Scopolamine methyl bromide]	39.8%	45%	63.8%
CN1CC[C@]2(CCN3CCc4c(oc5ccccc45)[C@@H]3C2)N(C)C1=O	53.2%	48.2%	71.3%
CCCN(CCC)C1Cc2cc(OC)c(OC)cc2C1	44.8%	45.4%	56.9%
CN1C(=O)CCS(=O)(=O)C1c1ccc(Cl)cc1 (stereo not given) [Chlormezanone]	36.8%	43%	55%
CN1CCc2cc(O)cc3c2[C@H]1Cc1ccc(O)c(O)c1-3 [R(-)-2,10,11-Trihydroxyaporphine hybrobromide]	30.5%	41.1%	60.7%
CS(=N)(=O)CC[C@H](N)C(=O)O (stereo partly drawn) [L-Methionine sulfoximine]	30.2%	39%	53%
COc1ccccc1N1CCNCC1 [1-(2-Methoxyphenyl)piperazine hydrochloride]	42.3%	41.7%	57.9%
COc1ccc(C(=O)N2CCCC2=O)cc1 [Aniracetam]	50.7%	46.2%	65.5%
NC(=O)COc1c(F)cc(SCCNS(=O)(=O)c2ccccc2)cc1F	38%	35.5%	60.5%
Cc1o[nH]c(=O)c1CC(N)C(=O)O (racemic) [(±)-AMPA hydrobromide]	27.5%	35.1%	60.7%
CC(C)=CCOc1c2occc2cc2ccc(=O)oc12 [Imperatorin]	41.9%	48.2%	29.9%
COc1cc2c(cc1OC)C1CC(=O)C(CC(C)C)CN1CC2 (stereo not given) [Tetrabenazine]	44.4%	37.6%	69.1%
O=C1/C(=C/c2ccccc2)C[C@@]2(O)[C@H]3Cc4ccc(O)c5c4[C@@]2(CCN3CC2CC2)[C@H]1O5 [BNTX maleate salt hydrate]	40.3%	43.3%	53.1%
Clc1cc(I)cc(Cl)c1NC1=NCCN1 [p-Iodoclonidine hydrochloride]	44.3%	42.9%	67.9%
C=CCN1C[C@H](C)N([C@H](c2ccc(C(=O)N(CC)CC)cc2)c2cccc(OC)c2)C[C@H]1C	47.6%	29.8%	48.2%
CC[C@@H](C(N)=O)N1CCCC1=O [Levetiracetam]	54.8%	49.8%	69.2%

Part of the list above in a different format:
SMILES | general growth inhibition [1] | growth inhibition [2] | growth inhibition [3]
Clc1cnc(Oc2ccc(Oc3ncc(Cl)cc3Cl)cc2)c(Cl)c1 | 39.3% | 28.8% | 45%
C=C(C)[C@H]1CN[C@H](C(=O)O)[C@H]1CC(=O)O [Kainic acid] | 46.6% | 48.1% | 61.1%
